Experimental data as given in article doi:10.1101/2024.06.26.599433.
The exact form of at least one protein or probe is not confirmed.

System: MSI2 (Musashi-2)
Test: EMSA
Conditions: 0.2 nM RNA, MSI2 titration, 3 mM MgCl2

AAACCUGGUAGUGAAACAAU [Prdx4 RNA oligo (mPrdx4-Msi2-BD)]
binding result: binds
